{"source": "PubChem BioAssay AID504834", "about": "(National Center for Advancing Translational Sciences (NCATS), 2011)", "note": "In all, about 320,000 compounds went through this assay and about 22,000 (6.9%) were called active. Inconclusive means that the source gave no clear call. Such entries were picked first, then a sample of the others. Calls follow the shape of the dose curve; as a rule, active = well fitted inhibition curve with a large enough effect; inconclusive = small, poorly fitted or top-dose-only effect, or another doubt; inactive = no such curve, though single readings can be large or run the other way. Potencies of inconclusive entries are doubtful fits and often do not repeat. % is scaled to controls: 0 for no effect and ±100 for the full control effect; potency is read from the fitted curve at half-maximal effect.", "data": [{"experiment": "Primary qHTS for delayed death inhibitors of the malarial parasite plastid, 96 hour incubation", "conditions": "P. falciparum luciferase reporter growth; series mostly up to 28.7 µM; activity change, negative = inhibition: at the top concentration", "in_short": "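Parasite growth measured via integrated firefly luciferase reporter in P. falciparum. Infected erythrocytes at 2% hematocrit, 0.05% parasitemia final were treated 96 hours at 37 C under 5% CO2, and luminescence was read.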", "values": [{"smiles": "N#Cc1ccc(C(=O)OCC(=O)N2CCOCC2)cc1", "activity change, negative = inhibition": "inactive: 35.4%"}, {"smiles": "CCC(C)(C)NCC(=O)Nc1ccc(OC(F)(F)F)cc1", "activity change, negative = inhibition": "inactive: 3.29%"}, {"smiles": "CC1=C([N+](=O)[O-])C(c2ccc3c(c2)OCO3)N(C)C(=O)N1C", "note": "(stereo not given)", "activity change, negative = inhibition": "inactive: 1.88%"}, {"smiles": "CCc1cccc(CC)c1NC(=O)CN1CC(C)SC1=NC1CCCCC1", "note": "(stereo not given)", "Potency": "inconclusive: 18.5 µM [inhibitor, single point]"}, {"smiles": "Cc1ccc(C)n1NC(=O)c1cccc(Cl)c1", "Potency": "inconclusive: 18.5 µM [inhibitor, single point]"}, {"smiles": "COc1cc(C2NC(=O)NC(c3ccccc3)=C2C(C)=O)c(Br)c(Br)c1O", "note": "(stereo not given)", "Potency": "active: 0.738 µM"}, {"smiles": "Cc1c(CC(=O)NCCCC(=O)O)c(=O)oc2cc3c(cc12)CCC(C)(C)O3", "Potency": "inconclusive: 2.94 µM [inhibitor, partial curve]"}, {"smiles": "FC(F)(F)c1cccc(/C=N/NC(=S)NC2CCCCC2)c1", "Potency": "inconclusive: 4.15 µM [inhibitor, partial curve]"}, {"smiles": "CCCCNC(=S)NNC(=O)c1cc(-c2cccnc2)nc2ccccc12", "Potency": "inconclusive: 18.5 µM [inhibitor, single point]"}, {"smiles": "Cc1ccccc1NC(=O)C1(NC(=O)c2cccc(N3C(=O)CSC3c3ccccc3)c2)CCCCC1", "note": "(stereo not given)", "Potency": "inconclusive: 13.1 µM [inhibitor, single point]"}, {"smiles": "CCCC(=O)OC/C(O)=C(\\C#N)c1nc2ccccc2[nH]1", "Potency": "inconclusive: 4.15 µM [inhibitor, partial curve, poor fit]"}, {"smiles": "CSCCC(=O)N1CCC(n2nccc2NC(=O)CCCc2ccccc2)CC1", "Potency": "inconclusive: 9.28 µM [inhibitor, single point]"}, {"smiles": "COc1cccc(C(=O)N(c2ccccc2)C2C=CS(=O)(=O)C2)c1", "note": "(stereo not given)", "activity change, negative = inhibition": "inactive: 4.23%"}, {"smiles": "CCCCNC(=O)NC(C(N)=O)P(=O)(OCC)OCC", "note": "(stereo not given)", "activity change, negative = inhibition": "inactive: 25.7%"}, {"smiles": "O=C1CC(c2ccc(OCCCCCOc3ccc(C4CC(=O)NC4=O)cc3)cc2)C(=O)N1", "note": "(stereo not given)", "Potency": "inconclusive: 14.7 µM [inhibitor, single point]"}, {"smiles": "CCn1nnnc1SCC(=O)Nc1sc(C)c(C)c1C#N", "Potency": "inconclusive: 0.928 µM [inhibitor, partial curve, poor fit]"}, {"smiles": "Nc1cc(Cl)ccc1Oc1ccc2ccccc2c1", "activity change, negative = inhibition": "inactive: -9.9%"}, {"smiles": "COC(=O)C1CCN(C(=O)/C=C/c2ccc3c(c2)OCO3)CC1", "Potency": "inconclusive: 11.7 µM [inhibitor, single point]"}, {"smiles": "Nc1cc(N)nc(SCCOc2ccccc2F)n1", "activity change, negative = inhibition": "inactive: 9.14%"}, {"smiles": "Fc1ccc2nc(C3CCCCN3Cc3nc(CC4CC4)no3)[nH]c2c1", "note": "(stereo not given)", "activity change, negative = inhibition": "inactive: 0.353%"}, {"smiles": "COc1ccc(NC(=O)Nc2cccc3ccccc23)cc1S(N)(=O)=O", "activity change, negative = inhibition": "inactive: 44.1%"}, {"smiles": "Cc1ccc(CNC(=O)Cc2ccc(-c3ccccc3)cc2)cc1", "activity change, negative = inhibition": "inactive: 36.2%"}, {"smiles": "COc1ccc(NC(=O)c2ccccc2SC)c(OC)c1", "Potency": "inconclusive: 10.4 µM [inhibitor, partial curve, poor fit]"}, {"smiles": "N#CC(C(=O)C12CC3CC(CC(C3)C1)C2)c1nc2ccccc2[nH]1", "note": "(stereo not given)", "Potency": "inconclusive: 18.5 µM [inhibitor, single point]"}, {"smiles": "COc1cc(C)nc(NC(=O)COc2ccc(Cl)cc2C)n1", "Potency": "inconclusive: 2.62 µM [inhibitor, partial curve, poor fit]"}, {"smiles": "COc1ccc(N(CC(=O)N/N=C/c2ccccc2F)S(=O)(=O)c2ccccc2)cc1", "Potency": "inconclusive: 2.62 µM [inhibitor, full curve, poor fit]"}, {"smiles": "O=C(Cn1ncc2c([nH]c3ccccc32)c1=O)NCCc1ccccc1", "activity change, negative = inhibition": "inactive: -13.6%"}, {"smiles": "CC(=O)N/C(=C/c1ccccc1)C(=O)N1CCCCC1", "Potency": "inconclusive: 18.5 µM [inhibitor, single point]"}, {"smiles": "Cc1ccc(Sc2ncccc2C(=O)NCc2cc([N+](=O)[O-])ccc2O)c(C)c1", "Potency": "inconclusive: 14.7 µM [inhibitor, partial curve, poor fit]"}, {"smiles": "Cc1cc(C(=O)NCC2CCCO2)n(-c2ccccc2)n1", "note": "(stereo not given)", "Potency": "inconclusive: 13.1 µM [inhibitor, partial curve]"}, {"smiles": "Cc1ccc(NC(=O)CSc2nnc(-c3cccnc3)s2)cc1", "activity change, negative = inhibition": "inactive: 0%"}, {"smiles": "O=C(COC(=O)/C=C/C(=O)N1CCN(c2ccccc2)CC1)NCc1ccc(F)cc1", "Potency": "inconclusive: 10.4 µM [inhibitor, single point]"}, {"smiles": "CS(=O)(=O)c1ccccc1C(=O)Nc1ccccc1Cc1ccccc1", "Potency": "inconclusive: 13.1 µM [inhibitor, single point]"}, {"smiles": "Cc1ccc(C(=O)Nc2ncccc2O)cc1S(=O)(=O)N1CCCCC1", "Potency": "inconclusive: 10.4 µM [inhibitor, partial curve]"}, {"smiles": "Cc1cc(NC(=O)CSCc2nc(-c3cccc(Cl)c3)oc2C)no1", "Potency": "active: 11.7 µM"}, {"smiles": "CCOC(=O)c1cc(C#N)c(Nc2ccccc2OC)nc1C(F)(F)F", "activity change, negative = inhibition": "inactive: 8.6%"}, {"smiles": "O=C(NC(=S)Nc1ccc2[nH]c(=O)[nH]c2c1)c1ccccc1Cl", "Potency": "inconclusive: 3.29 µM [inhibitor, full curve, poor fit]"}, {"smiles": "O=C(CSc1nc(Cc2ccccc2)nc2ccccc12)c1ccc2c(c1)OCCO2", "Potency": "inconclusive: 10.4 µM [inhibitor, single point]"}, {"smiles": "CN(C1CCCCC1)S(=O)(=O)c1ccc2c(c1)c(=O)c(C(=O)N1CCc3ccccc3C1)cn2C", "Potency": "inconclusive: 20.8 µM [inhibitor, partial curve, poor fit]"}, {"smiles": "COC(=O)c1cc(NC(=O)Cc2coc3cc(OC)ccc23)cc(C(=O)OC)c1", "Potency": "inconclusive: 10.4 µM [inhibitor, single point]"}, {"smiles": "CN(C)c1ccc(CN(C(=O)/C=C/c2ccccc2Cl)C2CCS(=O)(=O)C2)cc1", "note": "(stereo not given)", "Potency": "inconclusive: 18.5 µM [inhibitor, single point]"}, {"smiles": "CC(C)C[C@H]1CN=C(Nc2ccccc2)N1CC1CCCCC1", "Potency": "inconclusive: 10.4 µM [inhibitor, single point]"}, {"smiles": "O=C(Nc1ccc(C(F)(F)F)cc1)c1cccc(-n2cnnn2)c1", "Potency": "inconclusive: 18.5 µM [inhibitor, single point]"}, {"smiles": "Cc1cc(C)nc(SCc2cn3ccccc3n2)n1", "activity change, negative = inhibition": "inactive: -3.84%"}, {"smiles": "Cc1c(NC(=O)c2noc(C(C)C)c2[N+](=O)[O-])c(=O)n(-c2ccccc2)n1C", "Potency": "inconclusive: 1.31 µM [inhibitor, partial curve]"}]}]}
